The subject of data set [1] is ctXPD (Chaetomium thermophilum). Nature of the data set: photo-cross-linking. The conditions noted are these: 5 mM Mg2+, position 26 of strand 1 (B) = Fab(g)-dC, photo-cross-linking: 20 mM HEPES pH 7.5, 50 mM KCl, 5 mM MgCl2, 1 mM TCEP, UV 312 nm, recombinant protein, protein details: N-terminal His (pBADM11).
For data set [2], the system named is ctp44 (Chaetomium thermophilum). In words: photo-cross-linking. The conditions noted are these: 5 mM Mg2+, no ATP, no ctXPD; position 26 of strand 1 (B) = Fab(g)-dC; photo-cross-linking: 20 mM HEPES pH 7.5, 50 mM KCl, 5 mM MgCl2, 1 mM TCEP, UV 312 nm; recombinant protein; protein details: N-terminal His (pETM11); label: 5'-32P on strand 1.

For at least one entry, the source does not settle the construct or the ends of the probe. For part of these data: Weaker means in comparison with the reference protein, sequence or condition of that experiment. For part of these data: At least one verdict was read from the data and is not stated in words by the source.

For “AAGCCTATGCCTACAGCATCCAGGGCGACGGTGCCGAGGATGACGATGAGCGCA (double strand) [ds-Fab(g)-dC 54/54]”, in data set [1] (three times less than ss probe, label: 5'-32P), the binding result is listed as “binds more weakly”.

For the sequence “AAGCCTATGCCTACAGCATCCAGGGCGACGGTGCCGAGGATGACGATGAGCGCA / TGCGCTCATCGTCATCCTCGGCACCGTCGCCCTGGATG [fs-Fab(g)-dC 54/38]”, the binding result in data set [1] (no ATP, no ctp44, more effective than Fap-dC, label: 5'-32P on strand 1) is given as “binds”; in data set [2] it was “binds”.

For the origin of these results see PMC7991749.
